Laboratory results reported in publication PMC6339880.

T1: Strep-LpxC (E. coli) (UniProt P0A725)
T1 sequence: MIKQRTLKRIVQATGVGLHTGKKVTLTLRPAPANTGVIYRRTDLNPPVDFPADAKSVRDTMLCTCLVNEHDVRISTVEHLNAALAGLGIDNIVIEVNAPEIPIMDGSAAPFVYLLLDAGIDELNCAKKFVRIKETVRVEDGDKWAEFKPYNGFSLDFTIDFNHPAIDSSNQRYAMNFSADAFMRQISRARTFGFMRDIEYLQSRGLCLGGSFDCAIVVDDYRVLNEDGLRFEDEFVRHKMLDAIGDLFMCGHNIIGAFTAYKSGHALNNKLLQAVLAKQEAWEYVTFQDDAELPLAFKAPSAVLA


Biological target: T1, Strep-LpxC (E. coli)
Experiment: affinity purification with mass spectrometry; Strep-LpxC overproduced in E. coli BL21 Δarg/Δlys grown at 30°C (slow), 37°C (medium) or 40°C (fast growth); Strep-tactin affinity purification from the lysate; co-purified proteins identified by LC-MS/MS with a super-SILAC standard; enriched >2-fold over the Strep-tag empty-vector control, p<0.05, or 'LpxC only'

| Binder | binding |
| --- | --- |
| AccA (enzyme, UniProt P0ABD5 1-319) MSLNFLDFEQPIAELEAKIDSLTAVSRQDEKLDINIDEEVHRLREKSVELTRKIFADLGAWQIAQLARHPQRPYTLDYVRLAFDEFDELAGDRAYADDKAIVGGIARLDGRPVMIIGHQKGRETKEKIRRNFGMPAPEGYRKALRLMQMAERFKMPIITFIDTPGAYPGVGAEERGQSEAIARNLREMSRLGVPVVCTVIGEGGSGGALAIGVGDKVNMLQYSTYSVISPEGCASILWKSADKAPLAAEAMGIIAPRLKELKLIDSIIPEPLGGAHRNPEAMAASLKAQLLADLADLDVLSTEDLKNRRYQRLMSYGYA | binds |
| AccD (enzyme, UniProt P0A9Q5 1-304) MSWIERIKSNITPTRKASIPEGVWTKCDSCGQVLYRAELERNLEVCPKCDHHMRMTARNRLHSLLDEGSLVELGSELEPKDVLKFRDSKKYKDRLASAQKETGEKDALVVMKGTLYGMPVVAAAFEFAFMGGSMGSVVGARFVRAVEQALEDNCPLICFSASGGARMQEALMSLMQMAKTSAALAKMQERGLPYISVLTDPTMGGVSASFAMLGDLNIAEPKALIGFAGPRVIEQTVREKLPPGFQRSEFLIEKGAIDMIVRRPEMRLKLASILAKLMNLPAPNPEAPREGVVVPPVPDQEPEA | binds |
| PyrH (enzyme, UniProt P0A7E9 1-241) MATNAKPVYKRILLKLSGEALQGTEGFGIDASILDRMAQEIKELVELGIQVGVVIGGGNLFRGAGLAKAGMNRVVGDHMGMLATVMNGLAMRDALHRAYVNARLMSAIPLNGVCDSYSWAEAISLLRNNRVVILSAGTGNPFFTTDSAACLRGIEIEADVVLKATKVDGVFTADPAKDPTATMYEQLTYSEVLEKELKVMDLAAFTLARDHKLPIRVFNMNKPGALRRVVMGEKEGTLITE | binds |
| FabG (enzyme, UniProt P0AEK2 1-244) MNFEGKIALVTGASRGIGRAIAETLAARGAKVIGTATSENGAQAISDYLGANGKGLMLNVTDPASIESVLEKIRAEFGEVDILVNNAGITRDNLLMRMKDEEWNDIIETNLSSVFRLSKAVMRAMMKKRHGRIITIGSVVGTMGNGGQANYAAAKAGLIGFSKSLAREVASRGITVNVVAPGFIETDMTRALSDDQRAGILAQVPAGRLGGAQEIANAVAFLASDEAAYITGETLHVNGGMYMV | binds |
| FabA (enzyme, UniProt P0A6Q3 1-172) MVDKRESYTKEDLLASGRGELFGAKGPQLPAPNMLMMDRVVKMTETGGNFDKGYVEAELDINPDLWFFGCHFIGDPVMPGCLGLDAMWQLVGFYLGWLGGEGKGRALGVGEVKFTGQVLPTAKKVTYRIHFKRIVNRRLIMGLADGEVLVDGRLIYTASDLKVGLFQDTSAF | binds |
| FabI (enzyme, UniProt P0AEK4 1-262) MGFLSGKRILVTGVASKLSIAYGIAQAMHREGAELAFTYQNDKLKGRVEEFAAQLGSDIVLQCDVAEDASIDTMFAELGKVWPKFDGFVHSIGFAPGDQLDGDYVNAVTREGFKIAHDISSYSFVAMAKACRSMLNPGSALLTLSYLGAERAIPNYNVMGLAKASLEANVRYMANAMGPEGVRVNAISAGPIRTLAASGIKDFRKMLAHCEAVTPIRRTVTIEDVGNSAAFLCSDLSAGISGEVVHVDGGFSIAAMNELELK | binds |
| BasS (enzyme, UniProt P30844 1-363) MHFLRRPISLRQRLILTIGAILLVFELISVFWLWHESTEQIQLFEQALRDNRNNDRHIMREIREAVASLIVPGVFMVSLTLFICYQAVRRITRPLAELQKELEARTADNLTPIAIHSATLEIEAVVSALNDLVSRLTSTLDNERLFTADVAHELRTPLAGVRLHLELLAKTHHIDVAPLVARLDQMMESVSQLLQLARAGQSFSSGNYQHVKLLEDVILPSYDELSTMLDQRQQTLLLPESAADITVQGDATLLRMLLRNLVENAHRYSPQGSNIMIKLQEDDGAVMAVEDEGPGIDESKCGELSKAFVRMDSRYGGIGLGLSIVSRITQLHHGQFFLQNRQETSGTRAWVRLKKDQYVANQI | binds |
| ArnB (enzyme, UniProt P77690 1-385) MAEGKAMSEFLPFSRPAMGVEELAAVKEVLESGWITTGPKNQALEQAFCQLTGNQHAIAVSSATAGMHITLMALKIGKGDEVITPSLTWVSTLNMISLLGATPVMVDVDRDTLMVTPEAIESAITPRTKAIIPVHYAGAPADIDAIRAIGERYGIAVIEDAAHAVGTYYKGRHIGAKGTAIFSFHAIKNITCAEGGLIVTDNENLARQLRMLKFHGLGVDAYDRQTWGRAPQAEVLTPGYKYNLTDINAAIALTQLVKLEHLNTRRREIAQQYQQALAALPFQPLSLPAWPHVHAWHLFIIRVDEQRCGISRDALMEALKERGIGTGLHFRAAHTQKYYRERFPTLSLPNTEWNSERICSLPLFPDMTTADADHVITALQQLAGQ | binds |
| ArnC (enzyme, UniProt P77757 1-322) MFEIHPVKKVSVVIPVYNEQESLPELIRRTTTACESLGKEYEILLIDDGSSDNSAHMLVEASQAENSHIVSILLNRNYGQHSAIMAGFSHVTGDLIITLDADLQNPPEEIPRLVAKADEGYDVVGTVRQNRQDSWFRKTASKMINRLIQRTTGKAMGDYGCMLRAYRRHIVDAMLHCHERSTFIPILANIFARRAIEIPVHHAEREFGESKYSFMRLINLMYDLVTCLTTTPLRMLSLLGSIIAIGGFSIAVLLVILRLTFGPQWAAEGVFMLFAVLFTFIGAQFIGMGLLGEYIGRIYTDVRARPRYFVQQVIRPSSKENE | binds |
| FadB (enzyme, UniProt P21177 1-729) MLYKGDTLYLDWLEDGIAELVFDAPGSVNKLDTATVASLGEAIGVLEQQSDLKGLLLRSNKAAFIVGADITEFLSLFLVPEEQLSQWLHFANSVFNRLEDLPVPTIAAVNGYALGGGCECVLATDYRLATPDLRIGLPETKLGIMPGFGGSVRMPRMLGADSALEIIAAGKDVGADQALKIGLVDGVVKAEKLVEGAKAVLRQAINGDLDWKAKRQPKLEPLKLSKIEATMSFTIAKGMVAQTAGKHYPAPITAVKTIEAAARFGREEALNLENKSFVPLAHTNEARALVGIFLNDQYVKGKAKKLTKDVETPKQAAVLGAGIMGGGIAYQSAWKGVPVVMKDINDKSLTLGMTEAAKLLNKQLERGKIDGLKLAGVISTIHPTLDYAGFDRVDIVVEAVVENPKVKKAVLAETEQKVRQDTVLASNTSTIPISELANALERPENFCGMHFFNPVHRMPLVEIIRGEKSSDETIAKVVAWASKMGKTPIVVNDCPGFFVNRVLFPYFAGFSQLLRDGADFRKIDKVMEKQFGWPMGPAYLLDVVGIDTAHHAQAVMAAGFPQRMQKDYRDAIDALFDANRFGQKNGLGFWRYKEDSKGKPKKEEDAAVEDLLAEVSQPKRDFSEEEIIARMMIPMVNEVVRCLEEGIIATPAEADMALVYGLGFPPFHGGAFRWLDTLGSAKYLDMAQQYQHLGPLYEVPEGLRNKARHNEPYYPPVEPARPVGDLKTA | binds |
| SucB (enzyme, UniProt P0AFG6 1-405) MSSVDILVPDLPESVADATVATWHKKPGDAVVRDEVLVEIETDKVVLEVPASADGILDAVLEDEGTTVTSRQILGRLREGNSAGKETSAKSEEKASTPAQRQQASLEEQNNDALSPAIRRLLAEHNLDASAIKGTGVGGRLTREDVEKHLAKAPAKESAPAAAAPAAQPALAARSEKRVPMTRLRKRVAERLLEAKNSTAMLTTFNEVNMKPIMDLRKQYGEAFEKRHGIRLGFMSFYVKAVVEALKRYPEVNASIDGDDVVYHNYFDVSMAVSTPRGLVTPVLRDVDTLGMADIEKKIKELAVKGRDGKLTVEDLTGGNFTITNGGVFGSLMSTPIINPPQSAILGMHAIKDRPMAVNGQVEILPMMYLALSYDHRLIDGRESVGFLVTIKELLEDPTRLLLDV | binds |
| PrlC (enzyme, UniProt P27298 1-680) MTNPLLTPFELPPFSKILPEHVVPAVTKALNDCRENVERVVAQGAPYTWENLCQPLAEVDDVLGRIFSPVSHLNSVKNSPELREAYEQTLPLLSEYSTWVGQHEGLYKAYRDLRDGDHYATLNTAQKKAVDNALRDFELSGIGLPKEKQQRYGEIATRLSELGNQYSNNVLDATMGWTKLVTDEAELAGMPESALAAAKAQAEAKELEGYLLTLDIPSYLPVMTYCDNQALREEMYRAYSTRASDQGPNAGKWDNSKVMEEILALRHELAQLLGFENYAFKSLATKMAENPQQVLDFLTDLAKRARPQGEKELAQLRAFAKAEFGVDELQPWDIAYYSEKQKQHLYSISDEQLRPYFPENKAVNGLFEVVKRIYGITAKERKDVDVWHPDVRFFELYDENNELRGSFYLDLYARENKRGGAWMDDCVGQMRKADGSLQKPVAYLTCNFNRPVNGKPALFTHDEVITLFHEFGHGLHHMLTRIETAGVSGISGVPWDAVELPSQFMENWCWEPEALAFISGHYETGEPLPKELLDKMLAAKNYQAALFILRQLEFGLFDFRLHAEFRPDQGAKILETLAEIKKLVAVVPSPSWGRFPHAFSHIFAGGYAAGYYSYLWADVLAADAFSRFEEEGIFNRETGQSFLDNILSRGGSEEPMDLFKRFRGREPQLDAMLEHYGIKG | binds |
| LpxB (enzyme, UniProt P10441 1-382) MTEQRPLTIALVAGETSGDILGAGLIRALKEHVPNARFVGVAGPRMQAEGCEAWYEMEELAVMGIVEVLGRLRRLLHIRADLTKRFGELKPDVFVGIDAPDFNITLEGNLKKQGIKTIHYVSPSVWAWRQKRVFKIGRATDLVLAFLPFEKAFYDKYNVPCRFIGHTMADAMPLDPDKNAARDVLGIPHDAHCLALLPGSRGAEVEMLSADFLKTAQLLRQTYPDLEIVVPLVNAKRREQFERIKAEVAPDLSVHLLDGMGREAMVASDAALLASGTAALECMLAKCPMVVGYRMKPFTFWLAKRLVKTDYVSLPNLLAGRELVKELLQEECEPQKLAAALLPLLANGKTSHAMHDTFRELHQQIRCNADEQAAQAVLELAQ | binds |
| WaaA (enzyme, UniProt P0AC75 1-425) MLELLYTALLYLIQPLIWIRLWVRGRKAPAYRKRWGERYGFYRHPLKPGGIMLHSVSVGETLAAIPLVRALRHRYPDLPITVTTMTPTGSERVQSAFGKDVQHVYLPYDLPDALNRFLNKVDPKLVLIMETELWPNLIAALHKRKIPLVIANARLSARSAAGYAKLGKFVRRLLRRITLIAAQNEEDGARFVALGAKNNQVTVTGSLKFDISVTPQLAAKAVTLRRQWAPHRPVWIATSTHEGEESVVIAAHQALLQQFPNLLLILVPRHPERFPDAINLVRQAGLSYITRSSGEVPSTSTQVVVGDTMGELMLLYGIADLAFVGGSLVERGGHNPLEAAAHAIPVLMGPHTFNFKDICARLEQASGLITVTDATTLAKEVSSLLTDADYRSFYGRHAVEVLYQNQGALQRLLQLLEPYLPPKTH | binds |

These are yes or no findings as the source states them, for the method shown. Binding seen in cells or lysates may run through a third protein. A yes stands for co-enrichment or nearness to the bait. Other partners may have been found.
